In patent publication US12697404B2, “PSMA-targeting conjugate and uses thereof” (priority 2021, dated 2026):
At least one compound was matched to its structure with a doubt left.

Test system: subcutaneous LNCaP tumors
Experiment: Comparative efficacy study in xenograft-bearing mice
Format: in vivo, R2G2 mice
Conditions: unlabeled conjugate, 10 ng dose, 3 cycles (days 24, 38, 52)

With `NC(=O)CN1CCN(CC(=O)NCC2CCC(C(=O)NC(Cc3ccc4ccccc4c3)C(=O)NCCCCC(NC(=O)NC(CCC(=O)O)C(=O)O)C(=O)O)CC2)CCN(CC(N)=O)CCN(CC(=O)NCC2CCC(C(=O)NC(Cc3ccc4ccccc4c3)C(=O)NCCCCC(NC(=O)NC(CCC(=O)O)C(=O)O)C(=O)O)CC2)CC1` (stereo not shown) [PSMA-OM-00214] as the molecule, how does the median survival read?
Its median survival is 8 weeks.
